Experimental data reported in article PMC7819943, “Rice protein-binding microarrays: a tool to detect cis-acting elements near promoter regions in rice”.
This is one part of the list.

molecular target: T1, OsSMF1 (Oryza sativa, UniProt Q6ZLB0 1-436); test: protein-binding microarray (RPBM); PBS, 2% BSA, 51.3 ng/ul salmon testes DNA, 50 uM zinc acetate, 200 nM TF, 25 C, 1 h; high values mean tight binding; settings: protein: recombinant; tags: N-terminal polyhistidine and DsRed monomer fusion (pET32a); chain copies: 2; label: CyDye5-dUTP incorporated in the synthesized complementary strand; 3' TTTTT single-stranded linker to array surface; dsDNA, one strand shown
T1 sequence: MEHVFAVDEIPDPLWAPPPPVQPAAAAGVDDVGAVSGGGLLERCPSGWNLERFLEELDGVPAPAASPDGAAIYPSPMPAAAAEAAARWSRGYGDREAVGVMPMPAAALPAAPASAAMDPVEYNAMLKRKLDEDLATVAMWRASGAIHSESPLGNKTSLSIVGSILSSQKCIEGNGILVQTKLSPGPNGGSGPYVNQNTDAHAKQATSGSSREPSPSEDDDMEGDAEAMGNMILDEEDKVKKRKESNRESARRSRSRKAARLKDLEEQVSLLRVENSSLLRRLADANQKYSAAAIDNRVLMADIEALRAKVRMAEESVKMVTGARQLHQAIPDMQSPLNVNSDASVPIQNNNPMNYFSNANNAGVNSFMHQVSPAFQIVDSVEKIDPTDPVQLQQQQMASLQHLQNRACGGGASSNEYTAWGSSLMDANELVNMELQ
In short: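 Per-feature fluorescence intensity (arbitrary units), read on an Axon 4000B scanner, is the binding signal. Transcription factors carrying an N-terminal polyhistidine tag and DsRed fusion were expressed in E. coli BL21-CodonPlus and purified on Ni–NTA. A custom Agilent array, made double-stranded by primer extension with Cy5-dUTP and blocked with 2% BSA, was incubated with 200 nM protein in PBS, 2% BSA, salmon testes DNA and 50 µM zinc acetate at 25 °C for 1 h and then washed.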

| Sequence | binding signal |
| --- | --- |
| TTCAGAAGCTGACATAAGTTTGGGGACACATAGTCCTCGGCGGAGTCACCTAGTGCAG | 3820 fluorescence intensity (a.u.) |
| TGGTCGACGTGTTTGGCCAAGAGCGCTACCCTGCACTCCCCGGAGTCACCTAGTGCAG | 3490 fluorescence intensity (a.u.) |
| CTTACTCTCCCATTGACTTTCAATCCCAATGTAACCAGCTCGGAGTCACCTAGTGCAG | 3180 fluorescence intensity (a.u.) |
| TGTAAGCTTATGTGTCATCTTTCTTTGTTTGTGAAGAACCCGGAGTCACCTAGTGCAG | 7880 fluorescence intensity (a.u.) |
| AATGCTCTCTTACGGTGGATGACTTGGATGGGCTGATCAACGGAGTCACCTAGTGCAG | 3260 fluorescence intensity (a.u.) |
| GTTGGGCACATACGTGGCCACCGATGGTTGAGCCGTCGAACGGAGTCACCTAGTGCAG | 3910 fluorescence intensity (a.u.) |
| ATGTTGGGCCAGGCTCGAGCTCCTCCTCCTCCGCGTCGTCCGGAGTCACCTAGTGCAG | 23500 fluorescence intensity (a.u.) |
| CTCTATGGCCGCAACCCATCGCCGCCATAGACGTACGGACCGGAGTCACCTAGTGCAG | 6290 fluorescence intensity (a.u.) |
| AGCCACATTCCTCAAATCATGGTTAGAACCAAAACAACCACGGAGTCACCTAGTGCAG | 5700 fluorescence intensity (a.u.) |
| AAAATCGACATATCGCGCATGATGCAACCGTGTCTCACTGCGGAGTCACCTAGTGCAG | 3500 fluorescence intensity (a.u.) |
| TCCAGTTTGAGAGGAGAATCGATGTGGCAAATACGCGGAACGGAGTCACCTAGTGCAG | 5120 fluorescence intensity (a.u.) |
| TGGGTGGTGGTGGTGGTTCATCTCGCCGCGGGCGCGCACACGGAGTCACCTAGTGCAG | 3210 fluorescence intensity (a.u.) |
| TAGGCATAGGCCATAGATCCTAGTGCCAACACGACAGGCACGGAGTCACCTAGTGCAG | 4820 fluorescence intensity (a.u.) |
| CCAGTAATCCTCCTCCTGCTGCCTCAGCTCCTCTTCTGTACGGAGTCACCTAGTGCAG | 50800 fluorescence intensity (a.u.) |
| TGGTGTGCGTGAGTGTGCAACTCTCAATATTTGTTGCCCGCGGAGTCACCTAGTGCAG | 3820 fluorescence intensity (a.u.) |
| CCTCGCGCGGCGCGCAACGCACACGCTTCCCCTTCATCTCCGGAGTCACCTAGTGCAG | 24400 fluorescence intensity (a.u.) |
| ATAAATAGCTAGGGTTTTACGCCACGGCGCACGCCTCCACCGGAGTCACCTAGTGCAG | 3600 fluorescence intensity (a.u.) |
| TATGTATTATGTTTTAGGTGGAAGGTCTGAAAATGGGCCCCGGAGTCACCTAGTGCAG | 3690 fluorescence intensity (a.u.) |
| TCCCCTGCTCCCGCGTCATCGTCGCCGCCGCCGCCGCGTCCGGAGTCACCTAGTGCAG | 7100 fluorescence intensity (a.u.) |
| TATCAAATTATAGCGCAATTAGGCTCAAAAGATTCAGATTCGGAGTCACCTAGTGCAG | 26600 fluorescence intensity (a.u.) |
| GGTTCCTGTTTTAGCATTACGATATTTGGGTTGGTTTACTCGGAGTCACCTAGTGCAG | 3270 fluorescence intensity (a.u.) |
| CTCGCATCACACTAGCTTGACACGCCCTCAATTTCTCACACGGAGTCACCTAGTGCAG | 3450 fluorescence intensity (a.u.) |
| AGATACTTTGAACTTCAAGATGTCGTCGTCAGTTTCCGTGCGGAGTCACCTAGTGCAG | 3630 fluorescence intensity (a.u.) |
| ATCAAGATGTACACACTCCATGATTCATCAACTTGGTACCCGGAGTCACCTAGTGCAG | 5620 fluorescence intensity (a.u.) |
| ATATGTTCGGTATGATCAAACGTCAGCTAAAATGTTTGTTCGGAGTCACCTAGTGCAG | 3150 fluorescence intensity (a.u.) |
| TTGCTTACAATGCCACATCACAGCCACCACGTAGGATAATCGGAGTCACCTAGTGCAG | 9320 fluorescence intensity (a.u.) |
| GTTGACCGTCTACGTGGCATTCCACGTAGGCAGCTCATTTCGGAGTCACCTAGTGCAG | 16600 fluorescence intensity (a.u.) |

| Sequence | binding signal |
| --- | --- |
| ACGCCTCATCTCCAGTCCACGGCTCAACGTCCACGCACACCGGAGTCACCTAGTGCAG | 3490 fluorescence intensity (a.u.) |
| AGACTGTAGGACCTGCTGACGTGGTGTAAACCGCTCAGGGCGGAGTCACCTAGTGCAG | 20300 fluorescence intensity (a.u.) |
| CATGTAGGGATTGCATGAACACGCCATTGCCGGCTTCCGCCGGAGTCACCTAGTGCAG | 3500 fluorescence intensity (a.u.) |
| TCCTCTGCAGTCACTTTACCGTGCATTTATCACATGTCAGCGGAGTCACCTAGTGCAG | 4670 fluorescence intensity (a.u.) |
| AGCAGCAGTGTTCATGTCACCAATAATTTGGCTCATGCTTCGGAGTCACCTAGTGCAG | 3630 fluorescence intensity (a.u.) |
| GCAGCCGGCGGCAGCGAAGCATCTGTCGCGGGAGACACGTCGGAGTCACCTAGTGCAG | 4250 fluorescence intensity (a.u.) |
| CTCAAATGCACCAACAAGCAAATTTCTTGTACCCGTCATGCGGAGTCACCTAGTGCAG | 3690 fluorescence intensity (a.u.) |
| ATTGAAAAGGGTGGTAGAGTTAATTTGTTGTATGAGTTGGCGGAGTCACCTAGTGCAG | 4400 fluorescence intensity (a.u.) |
| CCACTGCCATTGCCTCGCTGGCGAGGACGTGTCGACGGGTCGGAGTCACCTAGTGCAG | 10500 fluorescence intensity (a.u.) |
| TGAGAAACGACAAAATCAGGCACGGAGTCAGACTCTGCCACGGAGTCACCTAGTGCAG | 3170 fluorescence intensity (a.u.) |
| GCCCGCACGTCAGTGGGCGTAGGTACAGTCGGGGCGGGTGCGGAGTCACCTAGTGCAG | 4380 fluorescence intensity (a.u.) |
| GGGTACTTAACCCTGATGTGGCTAAAGAGAAAAGCCGAATCGGAGTCACCTAGTGCAG | 3940 fluorescence intensity (a.u.) |
| TGTTTATAAACATTCCACGAATTAAACCCTGCAAAATTCCCGGAGTCACCTAGTGCAG | 21200 fluorescence intensity (a.u.) |
| AAGAAACCATCAAGCTAGCGAGGCCACCTCACCGGCCGCCCGGAGTCACCTAGTGCAG | 3320 fluorescence intensity (a.u.) |
| CAAGCAAAGTCCGTGCGTGTGGGCGTGGCTGACACCACGACGGAGTCACCTAGTGCAG | 3220 fluorescence intensity (a.u.) |
| GCAGGGCCGTTGGCTCGCCGTGCCGCCACGTCCCGGTGCCCGGAGTCACCTAGTGCAG | 4060 fluorescence intensity (a.u.) |
| TTTTCATGAGGTTGCCAAACTCAATTTGTCAGCATTAATTCGGAGTCACCTAGTGCAG | 3360 fluorescence intensity (a.u.) |
| TTTCTAGAGCACCTCTCACAAGCTCAGCATCTTCATGGTCCGGAGTCACCTAGTGCAG | 3820 fluorescence intensity (a.u.) |
| CGGTTCCTCCAGAGCGTAAGTGAATTGGGAAATTTCGGTGCGGAGTCACCTAGTGCAG | 3300 fluorescence intensity (a.u.) |
| ATATCTGCAGTAAGAGTCAGAGGTCCAAGACGTCCAAGTGCGGAGTCACCTAGTGCAG | 3170 fluorescence intensity (a.u.) |
| CTGGCGCTCAAGGCGGCGGCCGCCGCCATGGCCGACCCGACGGAGTCACCTAGTGCAG | 27400 fluorescence intensity (a.u.) |
| ACTTGATGACATCATACTGACATGGGCGTCCGATTCCTAGCGGAGTCACCTAGTGCAG | 13700 fluorescence intensity (a.u.) |
| TACACCGATCCATGATTGGTACATAGTACGCCGGTGAATCCGGAGTCACCTAGTGCAG | 15800 fluorescence intensity (a.u.) |
| ACCAGCAGTGCTTAAGTCCAGTCCACCACATCACAGTCGGCGGAGTCACCTAGTGCAG | 4170 fluorescence intensity (a.u.) |
| CGCGCGTGCCCGCGTAAACCAAGTCACGGATCCGCCGCCCCGGAGTCACCTAGTGCAG | 3540 fluorescence intensity (a.u.) |
| TGTTTGCCCACAGCTTGCTCGATGAAATGACTGGTTCATGCGGAGTCACCTAGTGCAG | 3220 fluorescence intensity (a.u.) |
| ATACCAAGAGTTCAAGAGAGCAGCTGGAGAAGACCTTCTTCGGAGTCACCTAGTGCAG | 4990 fluorescence intensity (a.u.) |

Exported with tabs: entries from further up
Sequence	binding signal
GCAGGGCCGTTGGCTCGCCGTGCCGCCACGTCCCGGTGCCCGGAGTCACCTAGTGCAG	4060 fluorescence intensity (a.u.)
TTTTCATGAGGTTGCCAAACTCAATTTGTCAGCATTAATTCGGAGTCACCTAGTGCAG	3360 fluorescence intensity (a.u.)
TTTCTAGAGCACCTCTCACAAGCTCAGCATCTTCATGGTCCGGAGTCACCTAGTGCAG	3820 fluorescence intensity (a.u.)
CGGTTCCTCCAGAGCGTAAGTGAATTGGGAAATTTCGGTGCGGAGTCACCTAGTGCAG	3300 fluorescence intensity (a.u.)
